Values from PubChem BioAssay AID686943 (Drosophila RNAi Screening Center, 2013).
The screen tested about 23,000 reagents; shown is a random part of those with a known target gene and a result. 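Extra replicates exist only for a retested subset of genes; insulin dose and duration not given; both raised and lowered dpERK matter.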 Not all columns of the deposit are shown. Not stated in the record: the amount of reagent, the time to read-out.

- Purpose: 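Knockdowns that increase or decrease active ERK after insulin receptor stimulation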 (primary screen)
- System: Drosophila S2R+ haemocyte-like cells expressing YFP-tagged ERK (Rolled)
- Reagent: long dsRNA against Drosophila genes
- Challenge: insulin stimulation versus unstimulated cells; dose and duration not given
- Measured: 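Per-plate z-scores of phospho-ERK immunostaining normalised to YFP-tagged ERK, measured with and without insulin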
- Direction: replicate 1, z-score of dpERK with insulin: higher = more active ERK per ERK-YFP after insulin

After knock-down of Muc12Ea [DRSC19937], the record shows replicate 1, z-score of dpERK with insulin 0.57.
For CG16853 [DRSC01877] the deposit lists replicate 1, z-score of dpERK with insulin -0.85.
Depletion of frm [DRSC09753] came out at: replicate 1, z-score of dpERK with insulin 0.65.
Depletion of Rh6 [DRSC16823] gave: replicate 1, z-score of dpERK with insulin 0.27.
After knock-down of Cht8 [DRSC04546], the screen gave replicate 1, z-score of dpERK with insulin -1.19.
Knock-down of CG6878 [DRSC10737] came out at: replicate 1, z-score of dpERK with insulin -0.33.
laza [DRSC11661] showed replicate 1, z-score of dpERK with insulin 0.46.
With knock-down of tyn [DRSC20652] the results were replicate 1, z-score of dpERK with insulin 1.54.
Depletion of CG15196 [DRSC19643] resulted in: replicate 1, z-score of dpERK with insulin -0.08.
For CG1695 [DRSC20538] the deposit lists replicate 1, z-score of dpERK with insulin -0.67.
With knock-down of Traf-like [DRSC19894], the screen gave replicate 1, z-score of dpERK with insulin 0.8.
Silencing of RabGGTb [DRSC00804] came out at: replicate 1, z-score of dpERK with insulin 0.3.
Dd [DRSC20539] scored replicate 1, z-score of dpERK with insulin -0.47.
For SREBP [DRSC11182], the values are replicate 1, z-score of dpERK with insulin -0.13.
Knock-down of CG32302 [DRSC08340] gave: replicate 1, z-score of dpERK with insulin 0.36.
key [DRSC04285] gave replicate 1, z-score of dpERK with insulin -1.47.
With knock-down of vir [DRSC04377] the results were replicate 1, z-score of dpERK with insulin -0.91.
For CG17597 [DRSC02630], the entry reads replicate 1, z-score of dpERK with insulin 0.09.
For tra2 [DRSC07708], the entry reads replicate 1, z-score of dpERK with insulin 0.5.
Depletion of Nha2 [DRSC14689] gave: replicate 1, z-score of dpERK with insulin 0.52.
Depletion of Nha2 [DRSC15619] resulted in: replicate 1, z-score of dpERK with insulin -1.85.
Nha2 [DRSC15623] showed replicate 1, z-score of dpERK with insulin 0.32.
Against CG11695 [DRSC19416], the entry reads replicate 1, z-score of dpERK with insulin -0.88.
aln [DRSC08240] gave replicate 1, z-score of dpERK with insulin 0.52.
After knock-down of CG5160 [DRSC02821] the results were replicate 1, z-score of dpERK with insulin 0.13.
CG13488 [DRSC04133] gave replicate 1, z-score of dpERK with insulin -0.37.
After knock-down of CG14961 [DRSC08420] the results were replicate 1, z-score of dpERK with insulin -0.65.
CG5569 [DRSC04514] gave replicate 1, z-score of dpERK with insulin 0.29.
For Prosbeta5R2 [DRSC01617], the entry reads replicate 1, z-score of dpERK with insulin -0.73.
With knock-down of swm [DRSC02012], the record shows replicate 1, z-score of dpERK with insulin 0.19.
Against swm [DRSC21831] the deposit lists replicate 1, z-score of dpERK with insulin -0.34.
For CG33648 [DRSC01387], the values are replicate 1, z-score of dpERK with insulin 0.53.
Silencing of CG7120 [DRSC08921] came out at: replicate 1, z-score of dpERK with insulin -0.5.
With knock-down of CG7120 [DRSC10773] the results were replicate 1, z-score of dpERK with insulin 0.31.
With knock-down of Rab1 [DRSC16808], the screen gave replicate 1, z-score of dpERK with insulin 1.4.
Silencing of Usp8 [DRSC15876] resulted in: replicate 1, z-score of dpERK with insulin 0.04.
CG42749 [DRSC18091] gave replicate 1, z-score of dpERK with insulin 0.71.
For CG42749 [DRSC18092], the values are replicate 1, z-score of dpERK with insulin 0.52.
Against Ir60b [DRSC04217] the deposit lists replicate 1, z-score of dpERK with insulin 0.78.
pix [DRSC10533] scored replicate 1, z-score of dpERK with insulin 0.47.

Records above whose target name begins with N or n (3):
Nha2 [DRSC14689] → replicate 1, z-score of dpERK with insulin = 0.52
Nha2 [DRSC15619] → replicate 1, z-score of dpERK with insulin = -1.85
Nha2 [DRSC15623] → replicate 1, z-score of dpERK with insulin = 0.32
